Results are given in words; binding and its absence hold for the method and conditions named. In cells and extracts the contact can be indirect. Some entries that bind do so weakly or less than the wild type.
Molecular target: hsc70 (UniProt P11142)
Assay: co-IP

Chains of the proteins cited; added tags and fusions are not shown.
UniProt P11142: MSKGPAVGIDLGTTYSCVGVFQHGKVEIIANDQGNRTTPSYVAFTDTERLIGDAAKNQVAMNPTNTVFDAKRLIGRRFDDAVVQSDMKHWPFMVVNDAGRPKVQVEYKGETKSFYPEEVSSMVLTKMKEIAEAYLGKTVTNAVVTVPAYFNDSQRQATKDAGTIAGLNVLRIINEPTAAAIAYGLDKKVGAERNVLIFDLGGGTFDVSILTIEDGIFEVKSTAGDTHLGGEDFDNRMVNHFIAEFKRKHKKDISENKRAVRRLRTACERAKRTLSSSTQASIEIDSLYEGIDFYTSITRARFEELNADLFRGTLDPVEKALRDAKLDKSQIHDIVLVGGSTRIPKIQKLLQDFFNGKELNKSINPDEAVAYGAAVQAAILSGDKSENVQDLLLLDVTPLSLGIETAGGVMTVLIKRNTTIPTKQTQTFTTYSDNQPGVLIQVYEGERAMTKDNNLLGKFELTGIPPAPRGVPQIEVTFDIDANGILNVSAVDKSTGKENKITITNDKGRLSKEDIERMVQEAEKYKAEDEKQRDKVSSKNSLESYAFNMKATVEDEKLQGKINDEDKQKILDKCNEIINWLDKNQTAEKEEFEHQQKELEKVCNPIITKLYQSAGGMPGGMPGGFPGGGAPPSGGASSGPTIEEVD
UniProt Q9GZT9: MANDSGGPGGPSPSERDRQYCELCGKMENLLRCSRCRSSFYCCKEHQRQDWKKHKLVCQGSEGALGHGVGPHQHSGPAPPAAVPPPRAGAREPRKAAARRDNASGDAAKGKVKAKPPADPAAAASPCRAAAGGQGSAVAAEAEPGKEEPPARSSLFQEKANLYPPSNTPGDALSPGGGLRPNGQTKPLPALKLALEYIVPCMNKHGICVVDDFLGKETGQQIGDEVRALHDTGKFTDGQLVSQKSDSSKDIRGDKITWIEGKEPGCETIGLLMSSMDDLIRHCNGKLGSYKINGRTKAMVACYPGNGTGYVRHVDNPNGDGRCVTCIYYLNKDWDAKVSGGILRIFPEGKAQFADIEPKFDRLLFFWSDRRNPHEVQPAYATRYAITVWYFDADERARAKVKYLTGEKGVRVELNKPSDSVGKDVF

binding: binds
Substance: PHD2 of the co-IP with hsc70 (data not shown) (from UniProt Q9GZT9 1-426) (enzyme)

Source: article doi:10.1101/297333
